Earlier results, collected in patent US4134792A, “Specific binding assay with an enzyme modulator as a labeling substance” (Miles Laboratories, Inc., priority 1976, dated 1979).
At least one compound was matched to its structure with a doubt left.

System: nicotinamide adenine dinucleotide (NAD)-isocitric dehydrogenase
Set-up: key: inhibitory or negative effectors are indicated by (-); stimulatory or positive effectors are indicated by (+)
Settings: N. crassa; cited from earlier work

In the case of `O=C(O)CCC(=O)C(=O)O` [α-ketoglutarate], the “allosteric effector: inhibitory (-) or stimulatory (+)” value is given as “-”.
